From the supplement of paper PMC10032668
± gives the standard deviation of the averaged measurements. Some of the results follow. The list holds hits alone, and they repeat only in part.

Sequences of proteins named here, by UniProt entry; tags and fusion partners are left off.
CDK9, P50750, UniProt P50750, whole entry: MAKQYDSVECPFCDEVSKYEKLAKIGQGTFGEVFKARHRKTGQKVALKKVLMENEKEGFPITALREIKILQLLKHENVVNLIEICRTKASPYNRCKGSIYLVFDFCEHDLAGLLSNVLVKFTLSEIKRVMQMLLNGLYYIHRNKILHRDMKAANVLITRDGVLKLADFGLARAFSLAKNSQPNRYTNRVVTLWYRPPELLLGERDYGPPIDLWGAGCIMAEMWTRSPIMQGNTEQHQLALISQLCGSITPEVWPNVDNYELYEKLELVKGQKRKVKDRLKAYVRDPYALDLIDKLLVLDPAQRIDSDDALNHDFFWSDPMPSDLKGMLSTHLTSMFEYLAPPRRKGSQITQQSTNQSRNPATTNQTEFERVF
EIF3H, O15372, UniProt O15372, whole entry: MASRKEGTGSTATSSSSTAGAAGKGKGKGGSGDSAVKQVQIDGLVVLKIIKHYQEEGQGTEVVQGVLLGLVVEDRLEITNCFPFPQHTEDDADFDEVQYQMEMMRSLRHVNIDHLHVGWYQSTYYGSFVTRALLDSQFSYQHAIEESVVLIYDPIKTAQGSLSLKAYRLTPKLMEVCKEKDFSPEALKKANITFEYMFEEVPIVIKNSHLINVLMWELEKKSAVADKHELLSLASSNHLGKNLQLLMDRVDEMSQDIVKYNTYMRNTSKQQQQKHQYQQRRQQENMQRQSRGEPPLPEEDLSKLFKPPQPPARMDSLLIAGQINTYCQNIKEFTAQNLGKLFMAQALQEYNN
HDAC1, Q13547, UniProt Q13547, whole entry: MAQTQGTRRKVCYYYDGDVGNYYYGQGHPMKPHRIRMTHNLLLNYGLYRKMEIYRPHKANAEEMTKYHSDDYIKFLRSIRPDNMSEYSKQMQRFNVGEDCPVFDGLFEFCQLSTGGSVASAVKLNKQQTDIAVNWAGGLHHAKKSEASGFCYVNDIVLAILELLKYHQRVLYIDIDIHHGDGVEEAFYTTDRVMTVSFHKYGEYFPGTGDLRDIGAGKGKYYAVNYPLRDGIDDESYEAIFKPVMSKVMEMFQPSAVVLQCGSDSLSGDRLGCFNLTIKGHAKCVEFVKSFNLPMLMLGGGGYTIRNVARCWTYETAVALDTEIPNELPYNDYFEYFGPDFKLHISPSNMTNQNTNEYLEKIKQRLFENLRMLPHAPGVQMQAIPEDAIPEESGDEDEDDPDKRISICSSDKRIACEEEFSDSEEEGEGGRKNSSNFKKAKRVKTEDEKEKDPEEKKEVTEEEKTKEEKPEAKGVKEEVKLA
MORF4L1, Q9UBU8, UniProt Q9UBU8, whole entry: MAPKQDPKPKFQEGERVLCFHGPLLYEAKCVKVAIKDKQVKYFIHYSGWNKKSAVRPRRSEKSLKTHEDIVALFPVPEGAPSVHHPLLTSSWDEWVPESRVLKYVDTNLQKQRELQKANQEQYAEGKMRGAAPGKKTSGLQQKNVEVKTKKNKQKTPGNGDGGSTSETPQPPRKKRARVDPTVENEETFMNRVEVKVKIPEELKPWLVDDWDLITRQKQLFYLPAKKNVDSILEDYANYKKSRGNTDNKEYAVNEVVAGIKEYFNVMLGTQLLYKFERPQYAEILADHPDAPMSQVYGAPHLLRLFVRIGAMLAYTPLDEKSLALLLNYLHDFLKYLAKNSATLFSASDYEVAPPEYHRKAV
NELFE, P18615, UniProt P18615, whole entry: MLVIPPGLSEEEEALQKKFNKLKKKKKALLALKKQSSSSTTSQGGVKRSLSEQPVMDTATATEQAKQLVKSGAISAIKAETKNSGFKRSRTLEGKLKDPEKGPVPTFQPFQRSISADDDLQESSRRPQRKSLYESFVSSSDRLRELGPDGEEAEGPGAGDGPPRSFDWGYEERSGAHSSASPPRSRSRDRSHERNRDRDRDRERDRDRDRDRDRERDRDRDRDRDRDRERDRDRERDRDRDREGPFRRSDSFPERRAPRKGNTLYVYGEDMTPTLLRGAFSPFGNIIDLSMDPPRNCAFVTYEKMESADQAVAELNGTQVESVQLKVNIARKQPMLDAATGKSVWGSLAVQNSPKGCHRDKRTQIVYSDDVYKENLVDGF
SMARCA4, P51532, UniProt P51532, whole entry: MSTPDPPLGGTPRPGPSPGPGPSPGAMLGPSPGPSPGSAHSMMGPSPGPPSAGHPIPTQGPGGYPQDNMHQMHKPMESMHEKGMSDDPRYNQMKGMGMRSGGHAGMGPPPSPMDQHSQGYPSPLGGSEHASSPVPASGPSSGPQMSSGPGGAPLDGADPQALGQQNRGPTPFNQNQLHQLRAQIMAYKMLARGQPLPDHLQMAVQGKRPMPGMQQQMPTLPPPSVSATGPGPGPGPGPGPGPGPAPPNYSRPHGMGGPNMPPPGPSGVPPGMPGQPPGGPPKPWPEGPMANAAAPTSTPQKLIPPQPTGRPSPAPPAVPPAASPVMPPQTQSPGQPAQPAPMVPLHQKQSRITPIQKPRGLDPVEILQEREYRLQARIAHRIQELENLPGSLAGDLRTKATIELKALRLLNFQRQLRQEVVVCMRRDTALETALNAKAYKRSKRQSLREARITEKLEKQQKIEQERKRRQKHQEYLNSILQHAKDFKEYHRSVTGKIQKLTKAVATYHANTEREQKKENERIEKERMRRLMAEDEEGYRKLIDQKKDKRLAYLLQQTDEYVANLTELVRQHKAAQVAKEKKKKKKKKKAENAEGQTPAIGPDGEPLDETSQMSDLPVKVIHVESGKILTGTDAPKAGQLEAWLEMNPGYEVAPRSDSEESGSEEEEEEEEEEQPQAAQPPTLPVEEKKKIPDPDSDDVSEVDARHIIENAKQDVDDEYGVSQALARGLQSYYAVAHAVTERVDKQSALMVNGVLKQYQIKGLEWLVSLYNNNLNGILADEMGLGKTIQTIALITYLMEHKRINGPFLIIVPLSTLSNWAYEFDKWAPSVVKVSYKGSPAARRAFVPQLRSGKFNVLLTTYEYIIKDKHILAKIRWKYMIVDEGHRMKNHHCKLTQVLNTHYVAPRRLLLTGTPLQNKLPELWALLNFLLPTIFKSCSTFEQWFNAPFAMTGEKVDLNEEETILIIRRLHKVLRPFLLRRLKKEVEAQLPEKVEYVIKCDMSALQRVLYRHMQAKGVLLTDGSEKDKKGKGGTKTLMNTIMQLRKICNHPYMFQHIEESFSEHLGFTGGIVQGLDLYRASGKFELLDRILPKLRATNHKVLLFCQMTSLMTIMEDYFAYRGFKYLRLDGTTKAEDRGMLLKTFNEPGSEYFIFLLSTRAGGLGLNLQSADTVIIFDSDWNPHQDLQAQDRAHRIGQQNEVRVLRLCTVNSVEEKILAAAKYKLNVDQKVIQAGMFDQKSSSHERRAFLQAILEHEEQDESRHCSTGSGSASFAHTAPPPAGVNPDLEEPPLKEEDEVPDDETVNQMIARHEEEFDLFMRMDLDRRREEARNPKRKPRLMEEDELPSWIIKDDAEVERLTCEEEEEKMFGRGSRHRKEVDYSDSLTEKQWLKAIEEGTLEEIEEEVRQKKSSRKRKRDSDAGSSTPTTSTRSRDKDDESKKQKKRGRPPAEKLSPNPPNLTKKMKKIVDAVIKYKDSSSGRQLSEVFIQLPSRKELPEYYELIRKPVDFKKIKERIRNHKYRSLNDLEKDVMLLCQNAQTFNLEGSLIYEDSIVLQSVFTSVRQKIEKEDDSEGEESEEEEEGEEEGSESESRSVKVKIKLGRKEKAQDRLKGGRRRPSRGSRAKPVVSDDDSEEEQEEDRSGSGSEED
SNRNP70, P08621, UniProt P08621, whole entry: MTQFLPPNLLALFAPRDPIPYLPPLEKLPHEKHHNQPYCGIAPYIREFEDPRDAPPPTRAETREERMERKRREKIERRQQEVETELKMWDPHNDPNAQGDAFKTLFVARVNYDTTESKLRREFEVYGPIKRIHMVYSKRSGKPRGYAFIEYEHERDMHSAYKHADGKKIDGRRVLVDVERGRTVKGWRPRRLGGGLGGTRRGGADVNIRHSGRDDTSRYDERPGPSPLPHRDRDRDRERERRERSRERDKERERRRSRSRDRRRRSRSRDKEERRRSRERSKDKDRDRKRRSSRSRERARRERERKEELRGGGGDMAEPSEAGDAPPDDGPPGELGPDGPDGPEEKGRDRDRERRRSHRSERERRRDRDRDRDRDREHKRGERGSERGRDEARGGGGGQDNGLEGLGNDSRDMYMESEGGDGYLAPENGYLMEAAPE
TPX2, Q9ULW0, UniProt Q9ULW0, whole entry: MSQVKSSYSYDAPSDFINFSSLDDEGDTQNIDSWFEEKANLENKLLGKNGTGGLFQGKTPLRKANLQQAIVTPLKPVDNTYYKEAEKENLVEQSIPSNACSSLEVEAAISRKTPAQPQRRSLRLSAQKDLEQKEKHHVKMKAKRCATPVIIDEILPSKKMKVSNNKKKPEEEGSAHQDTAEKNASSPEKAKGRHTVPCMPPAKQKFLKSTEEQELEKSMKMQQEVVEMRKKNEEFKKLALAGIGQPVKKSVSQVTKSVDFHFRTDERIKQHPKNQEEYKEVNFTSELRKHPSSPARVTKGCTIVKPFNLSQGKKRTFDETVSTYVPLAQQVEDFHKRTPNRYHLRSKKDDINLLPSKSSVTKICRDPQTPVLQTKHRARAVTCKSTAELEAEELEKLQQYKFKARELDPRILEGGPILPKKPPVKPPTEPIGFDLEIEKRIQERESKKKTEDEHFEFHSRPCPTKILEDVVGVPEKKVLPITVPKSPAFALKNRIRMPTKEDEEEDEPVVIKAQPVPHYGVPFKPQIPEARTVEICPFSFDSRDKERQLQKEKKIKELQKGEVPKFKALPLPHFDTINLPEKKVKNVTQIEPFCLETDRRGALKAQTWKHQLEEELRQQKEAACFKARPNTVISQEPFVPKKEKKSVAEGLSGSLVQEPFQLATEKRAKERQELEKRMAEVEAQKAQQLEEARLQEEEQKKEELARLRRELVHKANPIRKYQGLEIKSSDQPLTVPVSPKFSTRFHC
ASF1B, Q9NVP2, UniProt Q9NVP2, whole entry: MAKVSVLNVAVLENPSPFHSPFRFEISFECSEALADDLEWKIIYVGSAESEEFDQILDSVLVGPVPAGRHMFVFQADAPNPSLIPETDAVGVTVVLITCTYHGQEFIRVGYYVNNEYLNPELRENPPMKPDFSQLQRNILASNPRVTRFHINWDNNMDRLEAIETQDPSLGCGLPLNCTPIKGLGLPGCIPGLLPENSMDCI
TF, P02787, UniProt P02787, whole entry: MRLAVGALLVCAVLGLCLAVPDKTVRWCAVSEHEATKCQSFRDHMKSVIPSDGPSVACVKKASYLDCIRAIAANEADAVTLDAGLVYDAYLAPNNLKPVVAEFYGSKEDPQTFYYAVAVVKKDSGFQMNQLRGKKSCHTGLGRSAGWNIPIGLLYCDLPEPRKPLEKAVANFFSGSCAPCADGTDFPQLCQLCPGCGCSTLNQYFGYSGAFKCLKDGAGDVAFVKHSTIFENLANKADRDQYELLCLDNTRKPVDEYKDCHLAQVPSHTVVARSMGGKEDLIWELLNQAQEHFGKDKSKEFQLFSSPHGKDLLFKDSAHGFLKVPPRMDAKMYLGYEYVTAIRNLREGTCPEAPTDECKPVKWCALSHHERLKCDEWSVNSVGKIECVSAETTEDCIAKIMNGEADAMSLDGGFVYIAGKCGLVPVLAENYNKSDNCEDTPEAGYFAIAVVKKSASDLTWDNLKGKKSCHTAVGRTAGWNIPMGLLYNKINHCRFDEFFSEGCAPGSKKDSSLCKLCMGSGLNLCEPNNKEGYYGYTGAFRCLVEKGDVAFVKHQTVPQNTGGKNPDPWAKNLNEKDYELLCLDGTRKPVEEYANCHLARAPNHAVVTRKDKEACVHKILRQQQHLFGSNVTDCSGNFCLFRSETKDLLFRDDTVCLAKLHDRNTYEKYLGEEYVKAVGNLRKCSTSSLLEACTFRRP

Legend:
Assay in all cases: PRISMA enrichment of interactor (LFQ) in peptide spot vs all other peptide spots (log2 fold change); higher = stronger / more specific binding of the interactor to the peptide
ARMC6, Q6NXE6 = biological target: ARMC6, Q6NXE6
Experimental: (§1)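 PRISMA: 15-aa overlapping tiles (offset 8 aa) of 60 microproteins, plus SOS1/GLUT1 control peptides, were spot-synthesized on cellulose membranes in triplicate. Membranes were incubated with benzonase-treated HEK293T lysate, and bound proteins were identified by LC-MS/MS with LFQ. Enrichment is the log2 fold change of each protein in one spot versus all other spots. Only interactors passing the significance cutoff are listed.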

ASNS, P08243 = biological target: ASNS, P08243
Experimental: as §1

BRI3BP, Q8WY22 = biological target: BRI3BP, Q8WY22
Experimental: as §1

CDK9, P50750 = biological target: CDK9, P50750
Experimental: as §1

CENPB, P07199 = biological target: CENPB, P07199
Experimental: as §1

CLASP2, O75122 = biological target: CLASP2, O75122
Experimental: as §1

CTNND1, O60716 = biological target: CTNND1, O60716
Experimental: as §1

DNAJA2, O60884 = biological target: DNAJA2, O60884
Experimental: as §1

DNAJC7, Q99615 = biological target: DNAJC7, Q99615
Experimental: as §1

EIF3H, O15372 = biological target: EIF3H, O15372
Experimental: as §1

GLYR1, Q49A26 = biological target: GLYR1, Q49A26
Experimental: as §1

GMPPA, Q96IJ6 = biological target: GMPPA, Q96IJ6
Experimental: as §1

HDAC1, Q13547 = biological target: HDAC1, Q13547
Experimental: as §1

HK2, P52789 = biological target: HK2, P52789
Experimental: as §1

HLA-B = biological target: HLA-B
Experimental: as §1

HNRNPF, P52597 = biological target: HNRNPF, P52597
Experimental: as §1

MACF1 = biological target: MACF1
Experimental: as §1

MAZ, P56270 = biological target: MAZ, P56270
Experimental: as §1

MORF4L1, Q9UBU8 = biological target: MORF4L1, Q9UBU8
Experimental: as §1

MOV10, Q9HCE1 = biological target: MOV10, Q9HCE1
Experimental: as §1

MRPS21, P82921 = biological target: MRPS21, P82921
Experimental: as §1

MRPS26, Q9BYN8 = biological target: MRPS26, Q9BYN8
Experimental: as §1

MTCH2, Q9Y6C9 = biological target: MTCH2, Q9Y6C9
Experimental: as §1

MTX2, O75431 = biological target: MTX2, O75431
Experimental: as §1

NELFE, P18615 = biological target: NELFE, P18615
Experimental: as §1

NFS1, Q9Y697 = biological target: NFS1, Q9Y697
Experimental: as §1

NOL8, Q76FK4 = biological target: NOL8, Q76FK4
Experimental: as §1

NUP88, Q99567 = biological target: NUP88, Q99567
Experimental: as §1

PAWR, Q96IZ0 = biological target: PAWR, Q96IZ0
Experimental: as §1

PSIP1, O75475 = biological target: PSIP1, O75475
Experimental: as §1

PSMA4, P25789 = biological target: PSMA4, P25789
Experimental: as §1

RRP9, O43818 = biological target: RRP9, O43818
Experimental: as §1

SDE2, Q6IQ49 = biological target: SDE2, Q6IQ49
Experimental: as §1

SEC22B, O75396 = biological target: SEC22B, O75396
Experimental: as §1

SMARCA4, P51532 = biological target: SMARCA4, P51532
Experimental: as §1

SNRNP70, P08621 = biological target: SNRNP70, P08621
Experimental: as §1

SUPT5H, O00267 = biological target: SUPT5H, O00267
Experimental: as §1

TIA1, P31483 = biological target: TIA1, P31483
Experimental: as §1

TPX2, Q9ULW0 = biological target: TPX2, Q9ULW0
Experimental: as §1

UBTF, P17480 = biological target: UBTF, P17480
Experimental: as §1

UFL1, O94874 = biological target: UFL1, O94874
Experimental: as §1

WDR5, P61964 = biological target: WDR5, P61964
Experimental: as §1

ASCC2, Q9H1I8 = biological target: ASCC2, Q9H1I8
Experimental: as §1

DDX27, Q96GQ7 = biological target: DDX27, Q96GQ7
Experimental: as §1

KPNA6, O60684 = biological target: KPNA6, O60684
Experimental: as §1

MRPL13, Q9BYD1 = biological target: MRPL13, Q9BYD1
Experimental: as §1

MT-ATP6, P00846 = biological target: MT-ATP6, P00846
Experimental: as §1

ASF1B, Q9NVP2 = biological target: ASF1B, Q9NVP2
Experimental: as §1

MRPL38, Q96DV4 = biological target: MRPL38, Q96DV4
Experimental: as §1

NAP1L1, P55209 = biological target: NAP1L1, P55209
Experimental: as §1

NUP188, Q5SRE5 = biological target: NUP188, Q5SRE5
Experimental: as §1

QRICH1, Q2TAL8 = biological target: QRICH1, Q2TAL8
Experimental: as §1

SYNCRIP, O60506 = biological target: SYNCRIP, O60506
Experimental: as §1

TF, P02787 = biological target: TF, P02787
Experimental: as §1

## MATPVGVEHGEQSQA [SNHG16]
ARMC6, Q6NXE6
  PRISMA enrichment of interactor (log2): 6.09
ASNS, P08243
  PRISMA enrichment of interactor (log2): 7.5
BRI3BP, Q8WY22
  PRISMA enrichment of interactor (log2): 4.62
CDK9, P50750
  PRISMA enrichment of interactor (log2): 6.52
CENPB, P07199
  PRISMA enrichment of interactor (log2): 7.87
CLASP2, O75122
  PRISMA enrichment of interactor (log2): 5.73
CTNND1, O60716
  PRISMA enrichment of interactor (log2): 5.8
DNAJA2, O60884
  PRISMA enrichment of interactor (log2): 4.71
DNAJC7, Q99615
  PRISMA enrichment of interactor (log2): 8.05
EIF3H, O15372
  PRISMA enrichment of interactor (log2): 10.2
GLYR1, Q49A26
  PRISMA enrichment of interactor (log2): 6.38
GMPPA, Q96IJ6
  PRISMA enrichment of interactor (log2): 8.07
HDAC1, Q13547
  PRISMA enrichment of interactor (log2): 5.46
HK2, P52789
  PRISMA enrichment of interactor (log2): 6.24
HLA-B
  PRISMA enrichment of interactor (log2): 6.67
HNRNPF, P52597
  PRISMA enrichment of interactor (log2): 5.46
MACF1
  PRISMA enrichment of interactor (log2): 5.76
MAZ, P56270
  PRISMA enrichment of interactor (log2): 7.81
MORF4L1, Q9UBU8
  PRISMA enrichment of interactor (log2): 5.05
MOV10, Q9HCE1
  PRISMA enrichment of interactor (log2): 8.02
MRPS21, P82921
  PRISMA enrichment of interactor (log2): 4.91
MRPS26, Q9BYN8
  PRISMA enrichment of interactor (log2): 5.56
MTCH2, Q9Y6C9
  PRISMA enrichment of interactor (log2): 6.27
MTX2, O75431
  PRISMA enrichment of interactor (log2): 5.91
NELFE, P18615
  PRISMA enrichment of interactor (log2): 5.72
NFS1, Q9Y697
  PRISMA enrichment of interactor (log2): 5.86
NOL8, Q76FK4
  PRISMA enrichment of interactor (log2): 4.36
NUP88, Q99567
  PRISMA enrichment of interactor (log2): 8.31
PAWR, Q96IZ0
  PRISMA enrichment of interactor (log2): 5.98
PSIP1, O75475
  PRISMA enrichment of interactor (log2): 7.83
PSMA4, P25789
  PRISMA enrichment of interactor (log2): 6.27
RRP9, O43818
  PRISMA enrichment of interactor (log2): 6.08
SDE2, Q6IQ49
  PRISMA enrichment of interactor (log2): 7.21
SEC22B, O75396
  PRISMA enrichment of interactor (log2): 4.92
SMARCA4, P51532
  PRISMA enrichment of interactor (log2): 5.98
SNRNP70, P08621
  PRISMA enrichment of interactor (log2): 4.59
SUPT5H, O00267
  PRISMA enrichment of interactor (log2): 8.33
TIA1, P31483
  PRISMA enrichment of interactor (log2): 5.76
TPX2, Q9ULW0
  PRISMA enrichment of interactor (log2): 4.63
UBTF, P17480
  PRISMA enrichment of interactor (log2): 5.4
UFL1, O94874
  PRISMA enrichment of interactor (log2): 7.12
WDR5, P61964
  PRISMA enrichment of interactor (log2): 6.14

## ANNLAGVFRLFHWLT [CTD-2366F13.1]
ASCC2, Q9H1I8
  PRISMA enrichment of interactor (log2): 7.4
DDX27, Q96GQ7
  PRISMA enrichment of interactor (log2): 4.98
KPNA6, O60684
  PRISMA enrichment of interactor (log2): 4.84
MRPL13, Q9BYD1
  PRISMA enrichment of interactor (log2): 5.16
MT-ATP6, P00846
  PRISMA enrichment of interactor (log2): 4.45

## RGLGPAGAARKRGNS [TBX5-AS1]
ASF1B, Q9NVP2
  PRISMA enrichment of interactor (log2): 4.13
MRPL38, Q96DV4
  PRISMA enrichment of interactor (log2): 4.34
NAP1L1, P55209
  PRISMA enrichment of interactor (log2): 5.52 ± 0.75
NUP188, Q5SRE5
  PRISMA enrichment of interactor (log2): 4.98
QRICH1, Q2TAL8
  PRISMA enrichment of interactor (log2): 4.1
SYNCRIP, O60506
  PRISMA enrichment of interactor (log2): 6.99
TF, P02787
  PRISMA enrichment of interactor (log2): 5.72
